Drawing on PMC7606015, this text covers binding for one substance.

Chains of the proteins cited; added tags and fusions are not shown.
UniProt P09629: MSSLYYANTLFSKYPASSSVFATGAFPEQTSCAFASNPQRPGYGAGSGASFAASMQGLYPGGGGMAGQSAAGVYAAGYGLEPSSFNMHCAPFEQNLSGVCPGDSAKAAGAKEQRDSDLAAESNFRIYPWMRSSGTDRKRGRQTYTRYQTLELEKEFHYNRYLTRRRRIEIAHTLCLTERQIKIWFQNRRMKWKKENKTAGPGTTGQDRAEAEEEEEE
UniProt P78527: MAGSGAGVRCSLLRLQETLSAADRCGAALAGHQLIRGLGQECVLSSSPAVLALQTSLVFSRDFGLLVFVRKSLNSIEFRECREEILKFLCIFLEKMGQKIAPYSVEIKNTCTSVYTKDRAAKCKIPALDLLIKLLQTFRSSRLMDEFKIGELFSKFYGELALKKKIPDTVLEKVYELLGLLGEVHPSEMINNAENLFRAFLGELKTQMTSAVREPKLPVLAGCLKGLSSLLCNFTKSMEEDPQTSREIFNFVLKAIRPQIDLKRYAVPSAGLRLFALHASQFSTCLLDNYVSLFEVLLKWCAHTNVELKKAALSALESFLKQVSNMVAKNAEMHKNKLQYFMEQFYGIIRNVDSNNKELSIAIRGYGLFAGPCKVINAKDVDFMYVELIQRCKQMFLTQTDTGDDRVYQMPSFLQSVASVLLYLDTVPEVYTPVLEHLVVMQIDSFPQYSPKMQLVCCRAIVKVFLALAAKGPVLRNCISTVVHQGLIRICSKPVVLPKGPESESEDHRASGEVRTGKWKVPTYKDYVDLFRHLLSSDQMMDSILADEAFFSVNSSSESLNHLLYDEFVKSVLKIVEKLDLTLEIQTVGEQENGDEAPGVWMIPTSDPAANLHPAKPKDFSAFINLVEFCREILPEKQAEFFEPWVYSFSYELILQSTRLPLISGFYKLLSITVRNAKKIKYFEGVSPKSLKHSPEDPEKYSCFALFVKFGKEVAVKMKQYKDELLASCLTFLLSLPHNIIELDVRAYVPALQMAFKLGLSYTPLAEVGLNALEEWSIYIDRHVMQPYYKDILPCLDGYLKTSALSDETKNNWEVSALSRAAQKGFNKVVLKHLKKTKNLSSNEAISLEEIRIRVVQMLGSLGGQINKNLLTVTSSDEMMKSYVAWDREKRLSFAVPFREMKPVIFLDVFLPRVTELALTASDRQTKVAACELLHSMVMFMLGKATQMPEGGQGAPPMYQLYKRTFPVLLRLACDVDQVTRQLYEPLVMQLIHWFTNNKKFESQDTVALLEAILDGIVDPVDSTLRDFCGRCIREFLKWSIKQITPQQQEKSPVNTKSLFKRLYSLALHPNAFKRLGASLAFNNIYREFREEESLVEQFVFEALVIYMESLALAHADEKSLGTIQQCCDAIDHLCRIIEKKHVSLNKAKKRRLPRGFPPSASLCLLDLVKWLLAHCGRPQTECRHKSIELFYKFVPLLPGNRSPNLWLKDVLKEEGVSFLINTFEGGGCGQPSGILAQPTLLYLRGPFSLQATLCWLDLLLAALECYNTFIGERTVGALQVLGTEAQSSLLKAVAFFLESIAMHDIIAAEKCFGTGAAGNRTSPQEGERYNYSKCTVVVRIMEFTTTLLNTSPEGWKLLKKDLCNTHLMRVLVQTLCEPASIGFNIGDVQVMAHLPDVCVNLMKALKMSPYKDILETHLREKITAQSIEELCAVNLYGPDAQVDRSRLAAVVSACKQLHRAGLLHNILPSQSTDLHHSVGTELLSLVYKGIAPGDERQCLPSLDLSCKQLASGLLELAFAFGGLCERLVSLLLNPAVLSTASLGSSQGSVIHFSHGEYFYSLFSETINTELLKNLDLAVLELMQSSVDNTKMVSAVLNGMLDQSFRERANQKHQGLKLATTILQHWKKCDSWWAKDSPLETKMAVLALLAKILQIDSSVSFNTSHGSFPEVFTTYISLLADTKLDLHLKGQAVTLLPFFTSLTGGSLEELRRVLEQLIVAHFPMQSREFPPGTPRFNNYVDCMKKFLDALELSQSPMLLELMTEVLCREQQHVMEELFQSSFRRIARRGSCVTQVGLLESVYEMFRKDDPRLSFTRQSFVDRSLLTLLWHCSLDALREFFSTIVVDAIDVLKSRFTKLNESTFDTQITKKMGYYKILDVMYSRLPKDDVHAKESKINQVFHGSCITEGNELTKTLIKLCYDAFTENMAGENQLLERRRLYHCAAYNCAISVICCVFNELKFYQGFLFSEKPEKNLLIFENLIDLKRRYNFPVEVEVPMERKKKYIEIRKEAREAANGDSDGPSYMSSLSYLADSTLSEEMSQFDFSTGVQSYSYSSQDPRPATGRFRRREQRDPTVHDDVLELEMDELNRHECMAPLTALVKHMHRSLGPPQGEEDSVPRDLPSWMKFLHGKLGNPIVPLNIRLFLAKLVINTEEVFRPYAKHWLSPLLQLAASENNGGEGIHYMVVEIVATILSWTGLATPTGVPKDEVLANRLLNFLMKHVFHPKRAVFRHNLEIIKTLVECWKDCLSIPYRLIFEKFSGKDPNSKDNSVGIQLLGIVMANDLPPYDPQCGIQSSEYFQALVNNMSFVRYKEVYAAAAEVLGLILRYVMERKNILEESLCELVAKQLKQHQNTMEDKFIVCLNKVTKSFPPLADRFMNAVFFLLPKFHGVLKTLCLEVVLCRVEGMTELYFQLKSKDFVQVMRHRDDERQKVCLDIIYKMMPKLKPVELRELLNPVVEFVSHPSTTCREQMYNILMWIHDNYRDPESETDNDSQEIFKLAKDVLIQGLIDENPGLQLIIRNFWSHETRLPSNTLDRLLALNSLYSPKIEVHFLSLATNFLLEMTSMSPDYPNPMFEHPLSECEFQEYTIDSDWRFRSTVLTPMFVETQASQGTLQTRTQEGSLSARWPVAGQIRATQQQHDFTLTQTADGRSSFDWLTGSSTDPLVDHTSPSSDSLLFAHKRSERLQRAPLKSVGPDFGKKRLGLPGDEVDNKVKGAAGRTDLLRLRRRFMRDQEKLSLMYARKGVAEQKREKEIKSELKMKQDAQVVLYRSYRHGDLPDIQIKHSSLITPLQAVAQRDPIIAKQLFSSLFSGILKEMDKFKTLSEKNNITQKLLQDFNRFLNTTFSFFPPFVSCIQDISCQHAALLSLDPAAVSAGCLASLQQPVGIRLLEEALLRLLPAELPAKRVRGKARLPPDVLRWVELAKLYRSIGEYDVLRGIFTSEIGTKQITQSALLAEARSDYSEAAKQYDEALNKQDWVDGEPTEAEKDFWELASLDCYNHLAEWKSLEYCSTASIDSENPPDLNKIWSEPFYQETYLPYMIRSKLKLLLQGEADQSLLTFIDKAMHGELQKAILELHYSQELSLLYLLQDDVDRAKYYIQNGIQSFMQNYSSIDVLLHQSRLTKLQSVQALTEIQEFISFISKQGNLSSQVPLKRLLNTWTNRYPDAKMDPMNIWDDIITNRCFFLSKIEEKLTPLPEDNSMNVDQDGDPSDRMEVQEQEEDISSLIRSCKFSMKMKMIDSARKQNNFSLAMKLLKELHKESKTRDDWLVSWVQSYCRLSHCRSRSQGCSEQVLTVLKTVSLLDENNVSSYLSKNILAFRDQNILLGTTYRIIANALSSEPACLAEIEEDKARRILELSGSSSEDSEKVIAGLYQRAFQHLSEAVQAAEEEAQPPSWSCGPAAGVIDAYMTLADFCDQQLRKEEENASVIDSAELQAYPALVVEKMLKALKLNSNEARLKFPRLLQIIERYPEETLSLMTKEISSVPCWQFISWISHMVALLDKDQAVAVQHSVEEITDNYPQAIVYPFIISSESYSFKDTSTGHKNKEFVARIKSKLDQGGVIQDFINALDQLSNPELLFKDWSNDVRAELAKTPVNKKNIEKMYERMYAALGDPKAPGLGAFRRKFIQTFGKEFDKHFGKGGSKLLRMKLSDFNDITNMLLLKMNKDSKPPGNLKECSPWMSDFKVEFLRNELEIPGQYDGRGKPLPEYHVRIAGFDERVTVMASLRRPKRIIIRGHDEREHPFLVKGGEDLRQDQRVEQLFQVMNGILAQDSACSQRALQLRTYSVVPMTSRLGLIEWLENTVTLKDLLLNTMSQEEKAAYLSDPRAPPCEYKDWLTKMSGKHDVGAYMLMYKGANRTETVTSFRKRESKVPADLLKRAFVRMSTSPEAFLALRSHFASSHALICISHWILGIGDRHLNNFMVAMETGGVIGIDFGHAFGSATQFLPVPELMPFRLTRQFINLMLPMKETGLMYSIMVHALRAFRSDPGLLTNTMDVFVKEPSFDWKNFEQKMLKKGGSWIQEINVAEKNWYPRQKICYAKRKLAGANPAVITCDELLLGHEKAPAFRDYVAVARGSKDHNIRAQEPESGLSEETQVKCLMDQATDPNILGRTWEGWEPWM

The target in experiment [1] is HOXB7 (human (endogenous in KYSE150 and KYSE450)) (UniProt P09629). In words: co-IP; anti-HOXB7 antibody immobilised on AminoLink Plus Coupling Resin; precleared KYSE150 and KYSE450 lysates incubated overnight at 4°C; eluate blotted with anti-Ku70, anti-Ku80, anti-DNA-PKcs.
For another experiment, the target named is GST-HOXB7 fusion protein (UniProt P09629). In words: pull-down; GST-tagged HOXB7 immobilised on glutathione agarose; KYSE150 and KYSE450 lysates added, 4°C at least 1 hour; eluate blotted with anti-Ku70, anti-Ku80, anti-DNA-PKcs; only the target purified.

These are yes or no findings as the source states them, for the method shown. In cells and extracts the contact can be indirect. Some entries that bind do so weakly or less than the wild type.

As for DNA-PKcs (from UniProt P78527 1-4128), the binding entry (in experiment [1]; with GST-HOXB7 fusion protein) was “binds” in each case.
